{"sequences": {"note": "Sequences of proteins named here, by UniProt entry; tags and fusion partners are left off. A change or cut given only in a name is not applied to a line headed by its entry.", "UniProt P26039": "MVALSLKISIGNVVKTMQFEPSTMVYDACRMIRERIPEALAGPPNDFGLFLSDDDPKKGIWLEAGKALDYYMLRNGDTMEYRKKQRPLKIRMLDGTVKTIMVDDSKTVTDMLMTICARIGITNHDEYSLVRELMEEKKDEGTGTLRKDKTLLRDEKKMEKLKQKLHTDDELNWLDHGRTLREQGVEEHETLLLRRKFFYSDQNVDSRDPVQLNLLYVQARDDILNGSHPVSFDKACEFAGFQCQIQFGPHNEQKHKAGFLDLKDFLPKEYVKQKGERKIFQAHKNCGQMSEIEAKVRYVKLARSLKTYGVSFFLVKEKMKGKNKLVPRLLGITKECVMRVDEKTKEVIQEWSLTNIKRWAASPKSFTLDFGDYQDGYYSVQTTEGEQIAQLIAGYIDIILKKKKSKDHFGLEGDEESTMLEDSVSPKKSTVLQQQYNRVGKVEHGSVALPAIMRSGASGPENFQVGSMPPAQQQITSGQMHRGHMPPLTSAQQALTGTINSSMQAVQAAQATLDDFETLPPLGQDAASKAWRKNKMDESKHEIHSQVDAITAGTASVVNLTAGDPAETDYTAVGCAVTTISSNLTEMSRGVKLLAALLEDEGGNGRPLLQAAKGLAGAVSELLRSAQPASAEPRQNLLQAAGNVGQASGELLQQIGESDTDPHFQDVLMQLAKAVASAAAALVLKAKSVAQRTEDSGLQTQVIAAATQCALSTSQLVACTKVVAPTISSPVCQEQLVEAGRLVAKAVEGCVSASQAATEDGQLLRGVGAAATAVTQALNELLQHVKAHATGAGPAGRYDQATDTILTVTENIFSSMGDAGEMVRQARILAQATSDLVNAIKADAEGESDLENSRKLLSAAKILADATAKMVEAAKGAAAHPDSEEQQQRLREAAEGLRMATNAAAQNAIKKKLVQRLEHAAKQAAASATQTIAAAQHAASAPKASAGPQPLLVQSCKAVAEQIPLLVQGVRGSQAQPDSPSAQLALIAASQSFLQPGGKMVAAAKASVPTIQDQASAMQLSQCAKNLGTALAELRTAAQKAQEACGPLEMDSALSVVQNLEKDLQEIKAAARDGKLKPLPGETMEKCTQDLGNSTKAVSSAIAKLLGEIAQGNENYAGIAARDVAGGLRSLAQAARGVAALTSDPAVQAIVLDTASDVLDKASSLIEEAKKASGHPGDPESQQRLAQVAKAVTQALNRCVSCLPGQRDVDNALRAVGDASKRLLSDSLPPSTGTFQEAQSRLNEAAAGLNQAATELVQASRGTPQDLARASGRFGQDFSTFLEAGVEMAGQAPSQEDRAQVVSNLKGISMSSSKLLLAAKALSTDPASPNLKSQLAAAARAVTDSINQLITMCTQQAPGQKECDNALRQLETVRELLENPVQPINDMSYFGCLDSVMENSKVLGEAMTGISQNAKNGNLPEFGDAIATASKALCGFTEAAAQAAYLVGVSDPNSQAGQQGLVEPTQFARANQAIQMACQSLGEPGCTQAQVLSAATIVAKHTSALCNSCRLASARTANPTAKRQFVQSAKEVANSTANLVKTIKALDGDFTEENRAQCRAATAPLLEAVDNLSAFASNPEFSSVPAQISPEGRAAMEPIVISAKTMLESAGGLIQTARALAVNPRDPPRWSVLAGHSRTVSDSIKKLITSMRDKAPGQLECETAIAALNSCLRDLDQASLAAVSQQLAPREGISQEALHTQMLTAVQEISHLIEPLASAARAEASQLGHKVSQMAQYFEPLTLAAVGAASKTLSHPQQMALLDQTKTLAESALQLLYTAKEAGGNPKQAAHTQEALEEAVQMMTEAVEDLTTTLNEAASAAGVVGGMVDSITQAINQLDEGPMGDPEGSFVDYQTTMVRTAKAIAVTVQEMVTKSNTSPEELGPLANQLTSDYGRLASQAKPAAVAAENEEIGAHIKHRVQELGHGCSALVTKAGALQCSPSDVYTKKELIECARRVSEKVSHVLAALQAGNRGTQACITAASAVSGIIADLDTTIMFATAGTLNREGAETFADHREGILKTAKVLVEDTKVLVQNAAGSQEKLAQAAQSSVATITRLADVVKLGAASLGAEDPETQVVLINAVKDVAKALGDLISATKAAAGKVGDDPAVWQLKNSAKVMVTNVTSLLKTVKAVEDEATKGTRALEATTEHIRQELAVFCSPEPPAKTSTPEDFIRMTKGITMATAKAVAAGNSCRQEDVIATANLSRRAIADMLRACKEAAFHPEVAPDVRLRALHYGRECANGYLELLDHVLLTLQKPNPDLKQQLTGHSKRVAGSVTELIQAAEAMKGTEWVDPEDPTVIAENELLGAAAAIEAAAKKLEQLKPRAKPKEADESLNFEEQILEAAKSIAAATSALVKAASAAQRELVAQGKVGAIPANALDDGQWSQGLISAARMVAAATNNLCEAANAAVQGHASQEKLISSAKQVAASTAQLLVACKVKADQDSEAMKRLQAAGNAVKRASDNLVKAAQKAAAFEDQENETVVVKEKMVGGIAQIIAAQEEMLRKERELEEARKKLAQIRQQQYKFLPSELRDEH"}, "source": "paper doi:10.1101/2023.09.03.556084", "biological_target": "GFP-tagged talin 1 R2 domain, wild type (mouse) (UniProt P26039)", "experiment": "affinity purification with mass spectrometry", "note": "No constants are given. Whether binding was seen depends on the method and setting. In cells and extracts the contact can be indirect. A yes stands for co-enrichment or nearness to the bait. Other partners may have been found."}
{"substance": "ARPC5L (endogenous, found by mass spectrometry) (from UniProt Q9BPX5 1-153)", "values": [{"measurement": "binding", "result": "binds"}]}
